Measured values from patent US20040023887A1.
Results are given in words; binding and its absence hold for the method and conditions named. Some results given as binding are weak or reduced against the parent protein; the word gives no strength. For some of these results: Where a sequence is shown, tags or fusion partners need not be part of it.

Amino acid sequences for entries named in this document (tags omitted). A change or cut given only in a name is not applied to a line headed by its entry. Chains listed by the source or under a name are the forms on record and can include a tag or linker. Residues count along the entry.
soluble human insulin receptor-immunoglobulin heavy chain chimera (P06213, residues 28-956): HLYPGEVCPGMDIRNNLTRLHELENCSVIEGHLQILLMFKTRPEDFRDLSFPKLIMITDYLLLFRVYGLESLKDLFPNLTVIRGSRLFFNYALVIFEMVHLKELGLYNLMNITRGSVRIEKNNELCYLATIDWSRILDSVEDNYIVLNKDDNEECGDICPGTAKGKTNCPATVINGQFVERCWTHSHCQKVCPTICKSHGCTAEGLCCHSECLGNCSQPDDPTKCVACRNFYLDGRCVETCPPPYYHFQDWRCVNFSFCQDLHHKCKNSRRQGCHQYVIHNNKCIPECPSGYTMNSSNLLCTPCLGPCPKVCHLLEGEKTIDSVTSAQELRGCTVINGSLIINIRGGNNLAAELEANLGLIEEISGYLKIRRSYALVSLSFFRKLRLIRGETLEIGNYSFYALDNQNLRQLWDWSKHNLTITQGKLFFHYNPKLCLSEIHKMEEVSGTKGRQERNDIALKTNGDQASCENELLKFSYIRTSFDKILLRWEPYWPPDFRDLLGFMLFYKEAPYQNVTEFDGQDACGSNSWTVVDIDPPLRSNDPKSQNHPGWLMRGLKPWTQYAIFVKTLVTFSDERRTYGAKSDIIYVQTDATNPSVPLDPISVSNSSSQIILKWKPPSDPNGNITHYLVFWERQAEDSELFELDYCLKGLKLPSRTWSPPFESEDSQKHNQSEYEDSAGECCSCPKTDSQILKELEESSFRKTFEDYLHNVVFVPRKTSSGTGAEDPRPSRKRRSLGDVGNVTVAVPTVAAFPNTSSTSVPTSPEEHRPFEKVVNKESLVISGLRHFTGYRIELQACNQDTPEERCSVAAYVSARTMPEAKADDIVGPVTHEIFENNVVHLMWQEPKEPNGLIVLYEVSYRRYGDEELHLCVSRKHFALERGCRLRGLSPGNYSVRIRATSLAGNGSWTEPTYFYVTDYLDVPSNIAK
human insulin receptor (HIR), purified from transfected cells after solubilization with Triton X-100 (P06213, form named): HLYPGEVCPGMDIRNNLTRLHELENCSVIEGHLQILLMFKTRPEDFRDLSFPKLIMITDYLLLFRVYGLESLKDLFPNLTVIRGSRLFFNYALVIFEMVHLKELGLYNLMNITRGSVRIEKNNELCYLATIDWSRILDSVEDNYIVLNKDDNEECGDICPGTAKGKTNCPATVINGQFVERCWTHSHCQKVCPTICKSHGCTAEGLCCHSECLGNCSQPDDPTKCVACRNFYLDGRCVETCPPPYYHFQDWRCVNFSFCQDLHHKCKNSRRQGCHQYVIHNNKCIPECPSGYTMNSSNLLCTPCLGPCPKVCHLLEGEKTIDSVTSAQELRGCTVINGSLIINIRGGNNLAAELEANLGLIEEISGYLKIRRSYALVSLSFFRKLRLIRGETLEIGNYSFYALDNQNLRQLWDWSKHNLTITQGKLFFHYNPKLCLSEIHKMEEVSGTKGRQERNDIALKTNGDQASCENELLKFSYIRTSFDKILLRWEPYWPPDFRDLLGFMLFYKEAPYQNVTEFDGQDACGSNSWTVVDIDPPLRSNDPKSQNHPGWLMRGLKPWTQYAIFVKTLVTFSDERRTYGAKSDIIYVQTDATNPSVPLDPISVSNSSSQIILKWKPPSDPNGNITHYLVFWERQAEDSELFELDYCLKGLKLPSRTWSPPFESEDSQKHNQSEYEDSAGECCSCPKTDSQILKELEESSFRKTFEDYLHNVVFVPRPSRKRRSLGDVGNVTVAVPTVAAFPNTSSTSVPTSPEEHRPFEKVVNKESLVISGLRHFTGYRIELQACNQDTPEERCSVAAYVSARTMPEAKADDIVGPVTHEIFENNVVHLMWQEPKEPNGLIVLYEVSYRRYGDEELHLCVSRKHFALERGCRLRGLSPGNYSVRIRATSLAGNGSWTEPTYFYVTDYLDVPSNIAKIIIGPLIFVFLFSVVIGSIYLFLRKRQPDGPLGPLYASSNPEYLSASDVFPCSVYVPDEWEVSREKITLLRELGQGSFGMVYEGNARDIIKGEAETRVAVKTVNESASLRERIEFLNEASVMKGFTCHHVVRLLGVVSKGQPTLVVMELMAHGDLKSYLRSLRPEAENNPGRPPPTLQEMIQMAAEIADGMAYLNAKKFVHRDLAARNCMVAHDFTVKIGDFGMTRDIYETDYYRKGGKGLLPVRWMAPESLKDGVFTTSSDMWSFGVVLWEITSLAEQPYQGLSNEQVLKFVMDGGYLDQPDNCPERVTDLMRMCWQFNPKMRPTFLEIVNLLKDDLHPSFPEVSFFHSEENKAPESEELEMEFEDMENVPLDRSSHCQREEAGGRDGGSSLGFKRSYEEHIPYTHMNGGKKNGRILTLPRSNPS

How the values were obtained:
[1] = target: human insulin receptor (HIR), purified from transfected cells after solubilization with Triton X-100 (human) (UniProt P06213); assay: 125I-insulin competition
[2] = target: soluble human insulin receptor-immunoglobulin heavy chain chimera (human) (UniProt P06213); assay: BIAcore competition, MBP fusions
[3] = target: soluble human insulin receptor-immunoglobulin heavy chain chimera (human) (UniProt P06213); assay: FP competition with FITC-RP9 on sIR-Fc

Binder | binding [1] | other results
537 (RP9-6aa-D8) (peptide) peptide: MADYKDDDDKGSLDESFYDWFERQLGKKGGSGGSWLDQEWAWVQCEVYGRGCPSAAAGAPVPYPDPLEPRPG | binds | –
538 (RP9-12aa-D8) (peptide) peptide: MADYKDDDDKGSLDESFYDWFERQLGKKGGSGGSGGSGGSWLDQEWAWVQCEVYGRGCPSAAAGAPVPYPDPLEPRPG | binds | –
MADYKDDDDKWLDQEWAWVQCEVYGRGCPSAAAGAPVPYPDPLEPRPG [540] | binds | –
521 (RP9-6aa-RP9) (peptide) peptide: MADYKDDDDKGSLDESFYDWFERQLGKKGGSGGSGSLDESFYDWFERQLGKKAAAGAPVPYPDPLEPRPG | binds | –
H2C-3aa-H2C maltose binding protein fusion (protein) NNNNLGIEGRISEFIEGRAQPAMAFHENFYDWFVRQVSGGSFHENFYDWFVRQVSAAAGAPVPYPDPLEPRAA | – | binding [2]: binds
H2C-9aa-H2C maltose binding protein fusion (protein) NNNNLGIEGRISEFIEGRAQPAMAFHENFYDWFVRQVSGGSGGSGGSFHENFYDWFVRQVSAAAGAPVPYPDPLEPRAA | – | binding [2]: binds
GSLDESFYDWFERQLG [RP9 minus terminal lysines (…)] | – | binding [3]: binds
